These are yes or no findings as the source states them, for the method shown.
Molecular target: mScarlet I-Deup1 C-terminus fragment (467-601 a.a.) (mouse) (UniProt Q7M6Y5)
Assay: fluorescence microscopy of assemblies of purified protein; purified fluorescent protein (100 nM where stated) in 50 mM Tris pH 7.5, 150 mM NaCl, 1.5% glycerol with PEG8000 (up to 6%) or BSA 300 mg/ml as crowding agent, RT 10 min, confocal imaging; both purified

B1: mScarlet I-Deup1 C-terminus fragment (467-601 a.a.) (domain or fragment, UniProt Q7M6Y5-1 467-601)
chain: SDLAKLHGNGKAAWPNQSSYGEAGAYVFQSQLKTETSGDRISQDCELNRSPTPLSPLPFQTKEMASPLVGDNEVLALSPPDISFRASLAAQHFLMEEERRAKELEKLLNTHIDELQRHTEFTLNKYTKLKQSRHI
Q: B1 was tested. Which binding did it give?
A: Its binding is “no binding”.

— publication PMC7938805, “Biophysical and biochemical properties of Deup1 self-assemblies: a potential driver for deuterosome formation during multiciliogenesis” (Biology Open, 2021)
